PubChem BioAssay AID504786 – Drosophila RNAi Screening Center, 2011
In all, the deposit lists about 21,000 reagents; this is an unselected part of those that have a named target and a result. 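Primary screen; positive scores mean lost reporter signal, so the sign may be inverted from the usual convention.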 Names joined by + are all predicted targets of the reagent. Not all columns of the deposit are shown.

Purpose: 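Knock-downs reducing HIF reporter induction by the iron chelator DFO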 (primary screen)
System: Drosophila S2 cells with a stable HIF luciferase reporter
Reagent: long dsRNA against Drosophila genes, about 0.2 µg dsRNA per well of a 384-well plate
Timing: three days of knock-down, then 20 h of DFO before reading
Challenge: desferrioxamine (DFO) at 100 µM, an iron chelator that mimics hypoxia, for 20 h
Read-out: 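HIF reporter luminescence in cells given 100 µM DFO for 20 h, using the mouse ldh-a hypoxia-response element, scored as per-plate z-scores; higher means greater loss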
Direction: z-score: higher = stronger loss of HIF reporter signal

predicted target	amplicon	z-score, replicate 1	z-score, replicate 2	z-score, replicate 3
Ugt303A1 (UDP-glycosyltransferase family 303 member A1)	DRSC15641	-0.1	0	
CG12229	DRSC09868	0	0	
mei-P22 (meiotic P22)	DRSC11366	0	0.1	
CG3770	DRSC04416	0	-0.7	
CG34047 (retired record)	DRSC07857	-0.5	-0.2	-0.3
CG9922	DRSC16579	-0.2	-0.6	
Or88a (Odorant receptor 88a)	DRSC16770	-0.3	0	
Ir94g (Ionotropic receptor 94g)	DRSC15231	-0.2	-0.4	
croc (crocodile)	DRSC11884	-0.3	-0.4	
CG4891	DRSC01936	-0.3	-0.1	
CG44433	DRSC06517	-0.4	-0.6	
CG44433	DRSC06518	-0.3	-0.3	
eIF3d2 (eukaryotic translation initiation factor 3 subunit d2)	DRSC15651	-0.1	-0.2	
CG33230	DRSC08602	-0.1	-0.2	
C15	DRSC13495	0	-0.2	
C15	DRSC14169	0.3	-0.5	
dbr (debra)	DRSC00274	-0.1	-0.5	
Non2 (Novel nucleolar protein 2)	DRSC08272	-0.1	0	
shi (shibire)	DRSC20373	-0.6	-0.9	
kra (krasavietz)	DRSC12320	-0.2	-0.4	
CG11291	DRSC04097	-0.2	-0.2	
Tudor-SN (Tudor staphylococcal nuclease)	DRSC08581	-0.2	1.7	
SKIP (Shal K[+] channel interacting protein)	DRSC14713	-0.1	0.2	
SKIP (Shal K[+] channel interacting protein)	DRSC14714	0.3	-0.3	
SKIP (Shal K[+] channel interacting protein)	DRSC15864	0.3	-0.6	
SKIP (Shal K[+] channel interacting protein)	DRSC16195	-0.3	-0.6	0.3
SKIP (Shal K[+] channel interacting protein)	DRSC16196	-0.5	0.2	-1
CG8326	DRSC20103	0	0.4	
Gr36c (Gustatory receptor 36c)	DRSC02437	-0.3	-0.1	
Pdxk (Pyridoxal kinase)	DRSC10419	-0.1	2.3	
Ndf (Nucleosome-destabilizing factor)	DRSC02775	-0.3	-0.5	
Dph5 (Diphthamide methyltransferase)	DRSC16653	-0.1	0	
CG15423	DRSC00437	0	-0.3	
Ir100a (Ionotropic receptor 100a)	DRSC14329	-0.4	-0.9	
Cyp6a15Psi (pseudo)	DRSC07377	-0.1	0.1	
VGlut (Vesicular glutamate transporter)	DRSC00733	-0.3	0	-0.7
Rfk (Riboflavin kinase)	DRSC15454	-0.2	0.3	
CG13323	DRSC06360	-0.4	0	
CG13280	DRSC02253	-0.3	0.5	
Dgkepsilon (Diacyl glycerol kinase epsilon)	DRSC07399	-0.4	-0.4	
CG33257	DRSC09917	-0.2	0.9	
Ugt302K1 (UDP-glycosyltransferase family 302 member K1)	DRSC16086	-0.2	0.9	
CG42566	DRSC03949	-0.5	-0.2	
tbrd-1	DRSC14601	-0.2	-0.5	
Fcp3C (Follicle cell protein 3C)	DRSC18665	-0.3	0	
CG2865	DRSC18527	-0.3	-0.1	
CG2865	DRSC18528	2.8	2.1	
Cyp9c1 (Cytochrome P450 9c1)	DRSC04607	-0.2	-0.5	
CG13082	DRSC02186	-0.4	-0.4	
Mlp84B (Muscle LIM protein at 84B)	DRSC12596	-0.1	-0.1	
CG31266	DRSC15747	-0.3	-1	
CG2321	DRSC15439	-0.3	-0.3	
vap (vacuolar peduncle)	DRSC20275	-0.3	-0.6	
TTLL1B (Tubulin tyrosine ligase-like 1B)	DRSC08594	-0.3	-0.9	
CG7342	DRSC16230	-0.2	-0.6	
Spt (Spitting Image)	DRSC07123	-0.3	-0.3	
Prosalpha5 (Proteasome alpha5 subunit)	DRSC07514	-0.3	0.2	
CG42360	DRSC04224	0	-0.3	
RpL28 + snoRNA:Or-CD12	DRSC08293	4.5	4.8	
Ctl2 (Choline transporter-like 2)	DRSC14423	-0.3	-0.3	
D19A	DRSC11133	2.6	3.5	
cav (caravaggio)	DRSC15995	-0.3	-0.5	
Cadps (Calcium-dependent secretion activator)	DRSC21057	-0.2	-0.1	
sd (scalloped)	DRSC20370	1.4	1.8	
CG11836	DRSC14396	0	0.1	
CG15247	DRSC17976	-0.1	0.1	
Fas1 (Fasciclin 1)	DRSC16669	0.5	0.5	
CG33109	DRSC16533	0.1	-0.2	
Or45b (Odorant receptor 45b)	DRSC07488	-0.3	-0.4	
Idgf6 (Imaginal disc growth factor 6)	DRSC07360	-0.3	-0.3	
CG13694	DRSC00363	-0.1	-0.3	
fid (fire dancer)	DRSC14885	-0.4	-0.6	
fid (fire dancer)	DRSC16464	-0.7	-0.7	
CG15358	DRSC00388	0	-0.5	
Ir7g (Ionotropic receptor 7g)	DRSC18008	-0.1	0.6	
CG12863	DRSC06203	-0.3	-0.7	
Rdh1 (Retinol dehydrogenase 1)	DRSC06812	-0.1	-0.1	
ClC-b (Chloride channel-b)	DRSC07220	-0.2	0.3	
RpL35A (Ribosomal protein L35A)	DRSC12302	7.4	7.1	
CG9592	DRSC11078	-0.4	-0.5	
Nhe3 (Na[+]/H[+] hydrogen exchanger 3)	DRSC03380	-0.3	-0.3	
rogdi	DRSC10906	-0.3	0	
Alh (Alhambra)	DRSC12447	3.3	-1.1	
Alh (Alhambra)	DRSC12487	-0.5	1.2	
Alh (Alhambra)	DRSC12488	0.1	0	

Ordered by “z-score, replicate 1” (ascending): some entries from above
predicted target	amplicon	z-score, replicate 1	z-score, replicate 2	z-score, replicate 3
fid (fire dancer)	DRSC16464	-0.7	-0.7	
fid (fire dancer)	DRSC14885	-0.4	-0.6	
CG12863	DRSC06203	-0.3	-0.7	
ClC-b (Chloride channel-b)	DRSC07220	-0.2	0.3	
Ir7g (Ionotropic receptor 7g)	DRSC18008	-0.1	0.6	
Rdh1 (Retinol dehydrogenase 1)	DRSC06812	-0.1	-0.1	
CG15358	DRSC00388	0	-0.5	
